Reference: article PMC5224924
Changes are numbered by the printed parent chain. No constants are given. Whether binding was seen depends on the method and setting. Binding seen in cells or lysates may run through a third protein. Some entries that bind do so weakly or less than the wild type.

Protein sequences, listed by entry. Tags and fused reporters are not part of them. Residues count along the entry.
UniProt P62812, residues 28-455: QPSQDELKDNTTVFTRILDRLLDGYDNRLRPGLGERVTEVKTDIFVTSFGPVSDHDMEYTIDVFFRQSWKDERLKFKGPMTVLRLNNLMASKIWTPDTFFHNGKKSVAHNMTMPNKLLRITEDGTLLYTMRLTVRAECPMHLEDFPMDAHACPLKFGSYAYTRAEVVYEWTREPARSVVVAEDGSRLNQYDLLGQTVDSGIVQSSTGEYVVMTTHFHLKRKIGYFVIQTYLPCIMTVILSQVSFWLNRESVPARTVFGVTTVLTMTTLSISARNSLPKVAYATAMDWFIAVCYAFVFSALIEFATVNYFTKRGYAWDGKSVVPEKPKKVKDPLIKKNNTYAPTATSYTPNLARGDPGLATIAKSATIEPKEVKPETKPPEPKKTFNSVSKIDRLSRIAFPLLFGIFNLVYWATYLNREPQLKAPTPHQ
UniProt P12023, residues 18-770: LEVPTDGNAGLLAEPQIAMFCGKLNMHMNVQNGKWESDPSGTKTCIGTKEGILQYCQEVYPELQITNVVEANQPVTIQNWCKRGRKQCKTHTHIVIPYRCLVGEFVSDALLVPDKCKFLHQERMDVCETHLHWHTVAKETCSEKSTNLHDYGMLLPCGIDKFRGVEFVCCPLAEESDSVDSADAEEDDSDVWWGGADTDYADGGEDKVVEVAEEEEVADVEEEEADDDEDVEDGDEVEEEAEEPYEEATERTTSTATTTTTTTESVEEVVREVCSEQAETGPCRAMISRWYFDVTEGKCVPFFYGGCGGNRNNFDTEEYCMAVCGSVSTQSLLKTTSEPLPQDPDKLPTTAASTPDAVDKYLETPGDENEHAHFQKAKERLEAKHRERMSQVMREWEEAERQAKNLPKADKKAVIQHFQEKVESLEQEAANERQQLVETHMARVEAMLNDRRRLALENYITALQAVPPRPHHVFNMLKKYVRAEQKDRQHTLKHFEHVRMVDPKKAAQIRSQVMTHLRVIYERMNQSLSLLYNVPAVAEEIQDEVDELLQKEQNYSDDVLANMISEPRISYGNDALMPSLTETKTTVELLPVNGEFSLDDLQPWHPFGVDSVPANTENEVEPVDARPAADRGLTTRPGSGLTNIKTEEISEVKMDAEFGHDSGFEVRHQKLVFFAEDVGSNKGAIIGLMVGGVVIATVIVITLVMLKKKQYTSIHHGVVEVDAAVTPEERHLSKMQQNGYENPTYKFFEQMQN

Legend:
[1] = molecular target: T1, KCC2 (endogenous, mouse hippocampus) (mouse (endogenous in hippocampus)) (UniProt Q91V14); assay: co-IP; mouse hippocampal lysates, anti-KCC2 antibody, protocol as for HEK293 cells; western blot
T1 sequence: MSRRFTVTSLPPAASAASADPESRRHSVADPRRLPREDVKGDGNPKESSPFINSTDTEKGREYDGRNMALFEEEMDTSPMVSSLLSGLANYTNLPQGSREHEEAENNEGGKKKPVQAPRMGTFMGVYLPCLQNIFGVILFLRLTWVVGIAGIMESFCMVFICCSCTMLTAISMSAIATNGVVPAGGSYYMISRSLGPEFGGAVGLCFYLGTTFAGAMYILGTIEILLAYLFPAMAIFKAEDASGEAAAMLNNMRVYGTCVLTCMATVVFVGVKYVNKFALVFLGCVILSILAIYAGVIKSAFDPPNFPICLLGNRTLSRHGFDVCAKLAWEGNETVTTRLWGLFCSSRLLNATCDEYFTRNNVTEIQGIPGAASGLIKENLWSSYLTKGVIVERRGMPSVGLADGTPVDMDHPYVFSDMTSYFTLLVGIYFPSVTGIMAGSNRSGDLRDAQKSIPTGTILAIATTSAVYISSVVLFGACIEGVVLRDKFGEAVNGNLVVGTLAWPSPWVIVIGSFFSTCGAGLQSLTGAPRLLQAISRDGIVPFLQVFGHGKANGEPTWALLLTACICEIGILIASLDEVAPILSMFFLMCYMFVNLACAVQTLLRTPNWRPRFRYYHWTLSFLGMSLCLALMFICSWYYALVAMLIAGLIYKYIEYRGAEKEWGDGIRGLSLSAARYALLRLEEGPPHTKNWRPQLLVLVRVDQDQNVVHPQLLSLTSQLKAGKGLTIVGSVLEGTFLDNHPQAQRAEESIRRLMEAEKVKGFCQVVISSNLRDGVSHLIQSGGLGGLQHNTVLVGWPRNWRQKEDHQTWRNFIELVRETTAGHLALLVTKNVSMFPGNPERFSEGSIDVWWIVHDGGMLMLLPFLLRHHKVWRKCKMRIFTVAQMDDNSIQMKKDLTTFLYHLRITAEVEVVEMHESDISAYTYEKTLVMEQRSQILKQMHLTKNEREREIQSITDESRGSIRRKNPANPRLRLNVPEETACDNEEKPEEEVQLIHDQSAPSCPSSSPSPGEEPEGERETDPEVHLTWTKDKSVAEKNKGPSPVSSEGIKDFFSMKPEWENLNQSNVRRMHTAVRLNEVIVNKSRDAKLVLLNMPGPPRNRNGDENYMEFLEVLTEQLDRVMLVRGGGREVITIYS

[2] = molecular target: T2, mKCC2 (KCC2 Y903A Y1087A) (UniProt Q63633); assay: co-IP; HEK293 cells co-transfected; lysis buffer 50 mM Tris pH 7.5, 150 mM NaCl, 1 mM EDTA, 1% NP40; anti-KCC2, APPc or anti-GABAAR α1 antibody at 4°C overnight, protein A agarose; rabbit or mouse IgG as control; western blot
T2 sequence: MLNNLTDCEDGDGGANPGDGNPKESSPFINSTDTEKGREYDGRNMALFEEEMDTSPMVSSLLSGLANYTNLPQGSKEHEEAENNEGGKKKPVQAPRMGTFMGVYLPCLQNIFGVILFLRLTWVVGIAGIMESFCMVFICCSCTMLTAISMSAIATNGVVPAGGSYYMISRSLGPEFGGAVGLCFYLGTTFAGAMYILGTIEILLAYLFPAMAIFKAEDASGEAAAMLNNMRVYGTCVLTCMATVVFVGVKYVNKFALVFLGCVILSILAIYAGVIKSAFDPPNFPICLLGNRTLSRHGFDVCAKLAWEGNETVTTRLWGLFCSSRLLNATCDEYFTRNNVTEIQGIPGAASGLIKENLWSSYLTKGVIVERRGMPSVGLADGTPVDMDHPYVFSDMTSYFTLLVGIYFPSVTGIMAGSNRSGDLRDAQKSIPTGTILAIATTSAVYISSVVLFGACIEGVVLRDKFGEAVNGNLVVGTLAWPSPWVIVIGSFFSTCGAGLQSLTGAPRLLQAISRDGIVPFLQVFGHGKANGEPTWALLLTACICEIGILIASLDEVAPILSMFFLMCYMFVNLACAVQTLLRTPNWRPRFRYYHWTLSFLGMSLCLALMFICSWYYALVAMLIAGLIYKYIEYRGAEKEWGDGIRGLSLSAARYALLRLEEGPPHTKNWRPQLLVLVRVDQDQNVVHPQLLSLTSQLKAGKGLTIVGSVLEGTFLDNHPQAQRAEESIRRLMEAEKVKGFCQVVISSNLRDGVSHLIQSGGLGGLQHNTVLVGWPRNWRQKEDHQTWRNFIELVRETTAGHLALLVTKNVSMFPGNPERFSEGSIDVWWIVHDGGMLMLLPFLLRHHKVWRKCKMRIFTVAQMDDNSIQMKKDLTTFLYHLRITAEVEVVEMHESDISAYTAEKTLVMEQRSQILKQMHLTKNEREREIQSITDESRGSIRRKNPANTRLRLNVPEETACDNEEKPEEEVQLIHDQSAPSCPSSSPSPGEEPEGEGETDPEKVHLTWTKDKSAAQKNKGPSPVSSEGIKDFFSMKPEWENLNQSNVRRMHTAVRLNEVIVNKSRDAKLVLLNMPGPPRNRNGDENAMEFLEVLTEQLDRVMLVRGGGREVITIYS

[3] = molecular target: GABAA receptor α1 subunit (UniProt P62812); assay: as above
[4] = molecular target: T3, K+-Cl- cotransporter KCC2 (UniProt Q63633); assay: as above
T3 sequence: T2 sequence with A903Y, A1087Y

[5] = molecular target: T2, mKCC2 (KCC2 Y903A Y1087A); assay: proximity ligation; HEK293 cells transfected, fixed with 4% PFA, permeabilised; anti-KCC2 (mouse) and anti-APP (rabbit) antibodies, Duolink II probes; cells transfected with one construct alone as controls
[6] = molecular target: T3, K+-Cl- cotransporter KCC2; assay: as above

binding [1] | binding [2] | binding [3] | binding [4] | binding [5] | binding [6] | Substance
binds | – | – | – | – | – | APP (endogenous, mouse hippocampus) (from UniProt P12023 18-770)
– | binds | no binding | binds | binds | binds | full length human APP (hAPP695) (from UniProt P05067-4 18-695)
